# Data as given in PubChem BioAssay AID1259254 (NCATS, 2017)
# Test: 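Gene knock-downs that lead to re-replication, shown by excess G2 DNA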 (primary screen)
# System: human HCT116 colorectal cancer cells
# Knock-down reagent: single siRNA against human genes
# Duration: 3 days
# Read-out: 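Nuclei stained with Hoechst and imaged; cell-cycle phase assigned by DNA content; G2 share scaled per plate, non-targeting siRNA 0%, GMNN siRNA 100%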
# Reading the numbers: G2 robust z-score and G2 cells, % of GMNN control: higher = more G2 cells, more excess DNA replication; raw share of cells in G2: higher = larger share of cells with G2 DNA content
# Active means: 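An siRNA counts as active if its G2 robust z-score lies at least 5 MADs above the screen median; here such calls match roughly 38% of GMNN control or more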
# In all, the deposit lists about 59,000 reagents; shown is a part drawn at random. About 1,550 of all reagents (2.6%) count as active. 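G2 share is only a proxy for re-replication; each gene was hit by three separate siRNAs, and active genes were retested.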 Raw values vary from plate to plate and are shown uncorrected. A number with no mark means an inactive call. The numbers tell different reagents against one gene apart. The record does not give: the amount of reagent.
gene,reagent,G2 robust z-score,"G2 cells, % of GMNN control",raw share of cells in G2 (%)
ZNF263 (zinc finger protein 263),1,-0.462,-0.286,4.63
ZNF263 (zinc finger protein 263),2,-0.00169,2.96,6.32
ZNF263 (zinc finger protein 263),3,0.294,5.04,4.92
SRSF5 (serine and arginine rich splicing factor 5),1,2.01,17.1,11.4
SRSF5 (serine and arginine rich splicing factor 5),2,-0.305,0.825,4.83
SRSF5 (serine and arginine rich splicing factor 5),3,0.102,3.68,5.18
"PSMD11 (proteasome 26S subunit, non-ATPase 11)",1,2.78,22.5,12.7
"PSMD11 (proteasome 26S subunit, non-ATPase 11)",2,-0.618,-1.38,4.15
"PSMD11 (proteasome 26S subunit, non-ATPase 11)",3,-0.274,1.04,4.49
PON3 (paraoxonase 3),1,-0.156,1.87,5.39
PON3 (paraoxonase 3),2,3.98,30.9,14.4
PON3 (paraoxonase 3),3,-0.553,-0.921,4.66
TBX1 (T-box transcription factor 1),1,-0.692,-1.9,3.51
TBX1 (T-box transcription factor 1),2,0.037,3.23,5.91
TBX1 (T-box transcription factor 1),3,2.87,23.2,12.9
SHPK (sedoheptulokinase),1,7.44 (active),55.3,22.8
SHPK (sedoheptulokinase),2,-0.928,-3.56,3.9
SHPK (sedoheptulokinase),3,-0.972,-3.87,2.44
RAD21L1 (RAD21 cohesin complex component like 1),1,-0.0767,2.43,4.56
RAD21L1 (RAD21 cohesin complex component like 1),2,0.945,9.62,7.06
RAD21L1 (RAD21 cohesin complex component like 1),3,2.16,18.2,9.3
ZNF300 (zinc finger protein 300),1,-0.128,2.07,3.8
ZNF300 (zinc finger protein 300),2,1.42,12.9,7.66
ZNF300 (zinc finger protein 300),3,-0.504,-0.58,3.32
MMP27 (matrix metallopeptidase 27),1,-1.45,-7.24,2.54
MMP27 (matrix metallopeptidase 27),2,0.179,4.23,5.87
MMP27 (matrix metallopeptidase 27),3,0.21,4.45,5.92
CARD8 (caspase recruitment domain family member 8),1,0.262,4.81,5.51
CARD8 (caspase recruitment domain family member 8),2,-0.405,0.118,6.42
CARD8 (caspase recruitment domain family member 8),3,-1.01,-4.17,2.76
TNIK (TRAF2 and NCK interacting kinase),1,-1.01,-4.15,4.3
TNIK (TRAF2 and NCK interacting kinase),2,1.07,10.5,9.01
TNIK (TRAF2 and NCK interacting kinase),3,-1.24,-5.76,1.84
GPSM2 (G protein signaling modulator 2),1,-1.03,-4.29,2.59
GPSM2 (G protein signaling modulator 2),2,-1.35,-6.52,3.21
GPSM2 (G protein signaling modulator 2),3,-0.0479,2.63,5.06
DTD2 (D-aminoacyl-tRNA deacylase 2),1,-0.595,-1.22,3.6
DTD2 (D-aminoacyl-tRNA deacylase 2),2,2.07,17.6,8.56
DTD2 (D-aminoacyl-tRNA deacylase 2),3,-0.504,-0.576,1.65
OR1D2 (olfactory receptor family 1 subfamily D member 2),1,0.719,8.02,8.39
OR1D2 (olfactory receptor family 1 subfamily D member 2),2,-0.527,-0.742,3.93
OR1D2 (olfactory receptor family 1 subfamily D member 2),3,2.35,19.5,10.4
ANKLE2 (ankyrin repeat and LEM domain containing 2),1,1.12,10.8,9.24
ANKLE2 (ankyrin repeat and LEM domain containing 2),2,-0.975,-3.89,2.53
ANKLE2 (ankyrin repeat and LEM domain containing 2),3,0.599,7.18,5.86
SPINK6 (serine peptidase inhibitor Kazal type 6),1,-0.0224,2.81,4.51
SPINK6 (serine peptidase inhibitor Kazal type 6),2,-0.507,-0.601,2.88
SPINK6 (serine peptidase inhibitor Kazal type 6),3,1.15,11.1,7.01
AMMECR1 (AMMECR nuclear protein 1),1,-1.01,-4.14,3.46
AMMECR1 (AMMECR nuclear protein 1),2,-0.143,1.96,4.76
AMMECR1 (AMMECR nuclear protein 1),3,0.785,8.49,6.5
CLDN16 (claudin 16),1,-0.194,1.6,4.06
CLDN16 (claudin 16),2,1.05,10.4,10.6
CLDN16 (claudin 16),3,2.7,22,12.5
CAPN11 (calpain 11),1,-0.326,0.675,5.79
CAPN11 (calpain 11),2,1.96,16.8,10.8
CAPN11 (calpain 11),3,0.0705,3.46,5.2
NUB1 (negative regulator of ubiquitin like proteins 1),1,0.398,5.77,5.67
NUB1 (negative regulator of ubiquitin like proteins 1),2,1.53,13.7,10.1
NUB1 (negative regulator of ubiquitin like proteins 1),3,6.1 (active),45.9,18.4
"ADH1A (alcohol dehydrogenase 1A (class I), alpha polypeptide)",1,-0.489,-0.473,4.56
"ADH1A (alcohol dehydrogenase 1A (class I), alpha polypeptide)",2,0.603,7.21,7.64
"ADH1A (alcohol dehydrogenase 1A (class I), alpha polypeptide)",3,0.245,4.69,5.74
NT5DC3 (5'-nucleotidase domain containing 3),1,3.1,24.8,12.5
NT5DC3 (5'-nucleotidase domain containing 3),2,-0.745,-2.27,3.31
NT5DC3 (5'-nucleotidase domain containing 3),3,-0.41,0.0813,3.22
UBASH3B (ubiquitin associated and SH3 domain containing B),1,-0.359,0.439,4.27
UBASH3B (ubiquitin associated and SH3 domain containing B),2,0.215,4.48,4.4
UBASH3B (ubiquitin associated and SH3 domain containing B),3,-0.448,-0.185,2.87
ZNF581 (zinc finger protein 581),1,0.055,3.35,3.98
ZNF581 (zinc finger protein 581),2,-0.235,1.32,6.5
ZNF581 (zinc finger protein 581),3,-0.968,-3.85,2.42
TRIM2 (tripartite motif containing 2),1,-0.94,-3.65,2.62
TRIM2 (tripartite motif containing 2),2,-0.0274,2.77,7.48
TRIM2 (tripartite motif containing 2),3,-0.17,1.77,4.75
RPL9 (ribosomal protein L9),1,6.86 (active),51.2,26.8
RPL9 (ribosomal protein L9),2,0.0905,3.6,5.65
RPL9 (ribosomal protein L9),3,-0.385,0.26,3.45
"PPM1J (protein phosphatase, Mg2+/Mn2+ dependent 1J)",1,-1.19,-5.44,3.03
"PPM1J (protein phosphatase, Mg2+/Mn2+ dependent 1J)",2,-0.88,-3.22,3.33
"PPM1J (protein phosphatase, Mg2+/Mn2+ dependent 1J)",3,0.55,6.84,5.55
GABRA4 (gamma-aminobutyric acid type A receptor subunit alpha4),1,1.01,10,8.94
GABRA4 (gamma-aminobutyric acid type A receptor subunit alpha4),2,-0.364,0.406,4.92
GABRA4 (gamma-aminobutyric acid type A receptor subunit alpha4),3,-0.0694,2.48,5.34
SIK1 (salt inducible kinase 1),1,3.66,28.7,14.5
SIK1 (salt inducible kinase 1),2,-1.19,-5.42,3.22
SIK1 (salt inducible kinase 1),3,-0.326,0.672,3.9
